The record followed here is publication PMC12507952.

This assay addresses T1, RANK (mouse (endogenous in bone marrow-derived pre-OCs)) (UniProt O35305).
T1 sequence: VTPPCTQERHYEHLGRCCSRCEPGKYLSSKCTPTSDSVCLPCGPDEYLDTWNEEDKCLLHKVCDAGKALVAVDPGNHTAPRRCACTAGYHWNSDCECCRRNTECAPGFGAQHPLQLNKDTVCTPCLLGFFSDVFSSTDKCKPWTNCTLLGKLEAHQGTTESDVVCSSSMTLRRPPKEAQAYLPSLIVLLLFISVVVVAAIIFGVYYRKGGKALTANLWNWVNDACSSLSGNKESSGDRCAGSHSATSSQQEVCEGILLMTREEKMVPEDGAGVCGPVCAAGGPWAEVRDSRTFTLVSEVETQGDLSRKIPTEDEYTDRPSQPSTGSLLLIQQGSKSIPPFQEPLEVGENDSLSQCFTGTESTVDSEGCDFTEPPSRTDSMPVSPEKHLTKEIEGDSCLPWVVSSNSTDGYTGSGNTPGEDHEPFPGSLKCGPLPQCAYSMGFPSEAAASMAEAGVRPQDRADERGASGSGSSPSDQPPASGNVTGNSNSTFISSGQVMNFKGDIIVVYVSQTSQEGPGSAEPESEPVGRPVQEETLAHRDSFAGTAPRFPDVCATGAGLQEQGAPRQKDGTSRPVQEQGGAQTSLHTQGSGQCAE
Put plainly: co-IP; lysate of pre-OCs (RIPA buffer with protease inhibitors), with or without Yoda1 for 30 min; anti-RANK antibody overnight at 4°C, Protein A/G magnetic beads, washed with TBST; blot with anti-TRAF6.

Results are given in words; binding and its absence hold for the method and conditions named. Binding seen in cells or lysates may run through a third protein. Some entries that bind do so weakly or less than the wild type.

B1: TRAF6 (protein, UniProt P70196 1-530)
chain: MSLLNCENSCGSSQSSSDCCAAMAASCSAAVKDDSVSGSASTGNLSSSFMEEIQGYDVEFDPPLESKYECPICLMALREAVQTPCGHRFCKACIIKSIRDAGHKCPVDNEILLENQLFPDNFAKREILSLTVKCPNKGCLQKMELRHLEDHQVHCEFALVNCPQCQRPFQKCQVNTHIIEDCPRRQVSCVNCAVSMAYEEKEIHDQSCPLANIICEYCGTILIREQMPNHYDLDCPTAPIPCTFSVFGCHEKMQRNHLARHLQENTQLHMRLLAQAVHNVNLALRPCDAASPSRGCRPEDPNYEETIKQLESRLVRQDHQIRELTAKMETQSMYVGELKRTIRTLEDKVAEMEAQQCNGIYIWKIGNFGMHLKSQEEERPVVIHSPGFYTGRPGYKLCMRLHLQLPTAQRCANYISLFVHTMQGEYDSHLPWPFQGTIRLTILDQSEALIRQNHEEVMDAKPELLAFQRPTIPRNPKGFGYVTFMHLEALRQGTFIKDDTLLVRCEVSTRFDMGGLRKEGFQPRSTDAGV
As to B1, the binding result is “binds”.
